Record: PubChem BioAssay AID686938 (Drosophila RNAi Screening Center, 2013)
In all, the deposit lists about 23,000 reagents; shown is a random part of those with a known target gene and a result. Of all reagents, 75 (0.33%) are marked active. 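Raw plate signals without normalisation; calls rest on plate z-scores that were not deposited; ratio present for only 364 wells.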 The numbers tell different reagents against one gene apart. Names joined by + are all predicted targets of the reagent. No sequences are given here. The record does not give: the dose of the treatment.

Test: 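Knock-downs reducing store-operated calcium influx in Drosophila cells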 (primary screen)
Cells: Drosophila S2R+ cells
Reagent: long dsRNA against Drosophila genes, about 0.25 µg dsRNA per well, roughly 10,000 cells
Time to read-out: 5 days of knock-down before the calcium assay
Challenge: thapsigargin (SERCA pump blocker) to empty calcium stores; entry signal taken 4 min after adding it
Read-out: 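Per-well fluo-4 fluorescence in two replicates, unnormalised, measured in resting cells and 4 min after store depletion by the SERCA blocker thapsigargin; ratio of the two present in few wells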
Scale: calcium entry signal: higher = stronger calcium signal after store depletion; entry to resting ratio: higher = more calcium entry relative to resting level; resting calcium signal: higher = higher resting calcium signal
Hit rule: 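Hit if the duplicate-averaged plate z-score for entry over resting signal is under −3; wells with weak total dye signal (Fmax z < −2) or more than 5 off-targets removed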
Meaning of the calls: active = strongly reduced calcium entry; inactive = no strong reduction

| target gene | reagent | calcium entry signal, replicate 1 (fluorescence units) | calcium entry signal, replicate 2 (fluorescence units) | entry to resting ratio | resting calcium signal, replicate 1 (fluorescence units) | resting calcium signal, replicate 2 (fluorescence units) | activity call |
| --- | --- | --- | --- | --- | --- | --- | --- |
| RpL34b (GeneID 41120) | 1 | 2.35e7 | 1.95e7 | – | 1.24e7 | 1.13e7 | inactive |
| CG4704 (GeneID 42706) | 1 | 5.67e7 | 8.64e7 | – | 2.48e7 | 3.04e7 | inactive |
| cpx (GeneID 64877) | 1 | 3.39e7 | 4.11e7 | – | 1.94e7 | 1.95e7 | inactive |
| CG13058 (GeneID 39806) | 1 | 5.52e7 | 7.48e7 | – | 2.46e7 | 2.98e7 | inactive |
| CG17048 (GeneID 36479) | 1 | 4.01e7 | 2.95e7 | – | 1.87e7 | 1.29e7 | inactive |
| Amacr (GeneID 35337) | 1 | 2.28e7 | – | – | 1.30e7 | – | inactive |
| PIG-Q (GeneID 117366) | 1 | 3.27e7 | 3.64e7 | – | 1.60e7 | 1.71e7 | inactive |
| CG8028 (GeneID 32923) | 1 | 3.79e7 | 4.52e7 | – | 2.05e7 | 1.96e7 | inactive |
| Clp (GeneID 33259) | 1 | 2.40e7 | 2.93e7 | – | 1.23e7 | 1.45e7 | inactive |
| CG18508 (GeneID 59253) | 1 | 4.11e7 | 5.72e7 | 2.1 | 1.95e7 | 2.26e7 | inactive |
| Gclc (GeneID 53581) | 1 | 3.37e7 | 4.64e7 | – | 1.98e7 | 2.50e7 | inactive |
| CG2993 (GeneID 40924) | 1 | 4.50e7 | 2.84e7 | – | 2.15e7 | 1.38e7 | inactive |
| CG2993 (GeneID 40924) | 2 | 2.63e7 | 2.65e7 | – | 1.06e7 | 1.30e7 | inactive |
| CG31156 (GeneID 42669) | 1 | 4.34e7 | 2.84e7 | – | 2.01e7 | 1.38e7 | inactive |
| CG31156 (GeneID 42669) | 2 | 4.06e7 | 3.32e7 | – | 1.85e7 | 1.37e7 | inactive |
| CG43861 (GeneID 35284) | 1 | 3.76e7 | 4.28e7 | – | 1.89e7 | 1.90e7 | inactive |
| CG43861 (GeneID 35284) | 2 | 3.57e7 | 3.77e7 | – | 1.79e7 | 1.95e7 | inactive |
| GlcAT-P (GeneID 39262) | 1 | 4.75e7 | 3.43e7 | – | 2.95e7 | 1.39e7 | inactive |
| GlcAT-P (GeneID 39262) | 2 | 3.46e7 | 4.83e7 | – | 1.63e7 | 2.05e7 | inactive |
| CG1024 (GeneID 40789) | 1 | 2.40e7 | 2.38e7 | – | 1.19e7 | 1.19e7 | inactive |
| CG43307 (GeneID 12798569) | 1 | 2.34e7 | 3.09e7 | – | 1.32e7 | 1.55e7 | inactive |
| Obp50b + Obp50c | 1 | 2.87e7 | 3.81e7 | – | 1.67e7 | 1.56e7 | inactive |
| CG13724 (GeneID 39927) | 1 | 2.76e7 | 5.19e7 | – | 1.47e7 | 2.05e7 | inactive |
| yellow-c + CIAPIN1 | 1 | 3.73e7 | 2.25e7 | – | 1.72e7 | 1.11e7 | inactive |
| Cpr50Cb (GeneID 36525) | 1 | 3.50e7 | 3.91e7 | – | 1.87e7 | 1.81e7 | inactive |
| Aven (GeneID 32215) | 1 | 2.34e7 | 3.32e7 | – | 1.24e7 | 1.56e7 | inactive |
| CG32440 (GeneID 318030) | 1 | 3.92e7 | 3.49e7 | – | 1.97e7 | 1.55e7 | inactive |
| CG4853 (GeneID 36974) | 1 | 3.13e7 | 2.53e7 | – | 1.46e7 | 1.28e7 | inactive |
| CG5274 (GeneID 40257) | 1 | 4.09e7 | 4.27e7 | – | 1.97e7 | 3.08e7 | inactive |
| Fem-1 (GeneID 37344) | 1 | 2.92e7 | 3.62e7 | – | 1.49e7 | 1.68e7 | inactive |
| LManVI (GeneID 34206) | 1 | 2.53e7 | 3.61e7 | – | 1.21e7 | 1.55e7 | inactive |
| Cad88C (GeneID 41774) | 1 | 2.91e7 | 3.92e7 | – | 1.54e7 | 6.84e7 | inactive |
| CG10669 (GeneID 43069) | 1 | 3.24e7 | 4.87e7 | – | 1.71e7 | 2.26e7 | inactive |
| CG31191 (GeneID 42477) | 1 | 3.19e7 | 3.68e7 | – | 1.61e7 | 1.72e7 | inactive |
| CG31191 (GeneID 42477) | 2 | 3.46e7 | 4.94e7 | – | 6.68e7 | 2.17e7 | inactive |
| CG31191 (GeneID 42477) | 3 | 3.99e7 | 5.17e7 | – | 5.49e7 | 2.28e7 | inactive |
| CG10864 (GeneID 42222) | 1 | 4.31e7 | 4.53e7 | – | 5.32e7 | 2.16e7 | inactive |
| CG14383 (GeneID 41593) | 1 | 2.23e7 | 2.90e7 | – | 1.15e7 | 4.31e7 | inactive |
| Jhbp3 (GeneID 40611) | 1 | 2.75e7 | 5.50e7 | – | 1.44e7 | 2.34e7 | inactive |
| Nepl6 (GeneID 33893) | 1 | 4.23e7 | 3.09e7 | – | 2.27e7 | 1.69e7 | inactive |
| CG15140 (GeneID 5740546) | 1 | 4.96e7 | 3.28e7 | – | 2.18e7 | 1.65e7 | inactive |
| Cyp309a2 (GeneID 33439) | 1 | 3.99e7 | 3.87e7 | – | 1.72e7 | 1.56e7 | inactive |
| CG10163 (GeneID 38728) | 1 | 2.77e7 | 4.32e7 | – | 1.37e7 | 1.98e7 | inactive |
| FMRFaR (GeneID 38357) | 1 | 4.19e7 | 3.81e7 | – | 2.20e7 | 1.94e7 | inactive |
| CG10164 (GeneID 42777) | 1 | 3.58e7 | 2.35e7 | – | 1.73e7 | 1.18e7 | inactive |
| Duox (GeneID 33477) | 1 | 3.69e7 | 5.16e7 | – | 1.83e7 | 2.20e7 | inactive |
| CG4004 (GeneID 32226) | 1 | 4.29e7 | 4.61e7 | – | 1.84e7 | 2.13e7 | inactive |
| CG4004 (GeneID 32226) | 2 | 3.24e7 | 5.65e7 | – | 1.65e7 | 2.45e7 | inactive |
| CG15891 + CG15892 | 1 | 3.51e7 | 3.84e7 | – | 1.57e7 | 1.83e7 | inactive |
| CG15891 + CG15892 | 2 | 2.53e7 | 3.84e7 | – | 1.27e7 | 1.70e7 | inactive |
| Ugt307A1 (GeneID 33993) | 1 | 3.36e7 | 2.88e7 | – | 1.67e7 | 1.29e7 | inactive |
| CG42671 (GeneID 39268) | 1 | 4.31e7 | 3.37e7 | – | 2.16e7 | 1.76e7 | inactive |
| CG42671 (GeneID 39268) | 2 | 2.98e7 | 4.71e7 | – | 1.59e7 | 2.23e7 | inactive |
| mRpL19 (GeneID 41028) | 1 | 3.70e7 | 4.59e7 | – | 1.85e7 | 2.30e7 | inactive |
| mRpL19 (GeneID 41028) | 2 | 4.13e7 | 3.14e7 | – | 2.23e7 | 1.50e7 | inactive |
| Leash (GeneID 41320) | 1 | 4.13e7 | 4.14e7 | – | 2.00e7 | 2.14e7 | inactive |
| CG43367 + asRNA:CR32252 | 1 | 3.39e7 | 2.75e7 | – | 1.69e7 | 1.32e7 | inactive |
| Rpp20 + CG33932 | 1 | 2.53e7 | 3.81e7 | – | 1.33e7 | 1.56e7 | inactive |

9 entries from above, sorted by “calcium entry signal, replicate 1 (fluorescence units)”, low to high:
| target gene | reagent | calcium entry signal, replicate 1 (fluorescence units) | calcium entry signal, replicate 2 (fluorescence units) | entry to resting ratio | resting calcium signal, replicate 1 (fluorescence units) | resting calcium signal, replicate 2 (fluorescence units) | activity call |
| --- | --- | --- | --- | --- | --- | --- | --- |
| CG43307 (GeneID 12798569) | 1 | 2.34e7 | 3.09e7 | – | 1.32e7 | 1.55e7 | inactive |
| CG1024 (GeneID 40789) | 1 | 2.40e7 | 2.38e7 | – | 1.19e7 | 1.19e7 | inactive |
| Obp50b + Obp50c | 1 | 2.87e7 | 3.81e7 | – | 1.67e7 | 1.56e7 | inactive |
| GlcAT-P (GeneID 39262) | 2 | 3.46e7 | 4.83e7 | – | 1.63e7 | 2.05e7 | inactive |
| CG43861 (GeneID 35284) | 2 | 3.57e7 | 3.77e7 | – | 1.79e7 | 1.95e7 | inactive |
| CG43861 (GeneID 35284) | 1 | 3.76e7 | 4.28e7 | – | 1.89e7 | 1.90e7 | inactive |
| CG31156 (GeneID 42669) | 2 | 4.06e7 | 3.32e7 | – | 1.85e7 | 1.37e7 | inactive |
| CG31156 (GeneID 42669) | 1 | 4.34e7 | 2.84e7 | – | 2.01e7 | 1.38e7 | inactive |
| GlcAT-P (GeneID 39262) | 1 | 4.75e7 | 3.43e7 | – | 2.95e7 | 1.39e7 | inactive |
